Experimental data from patent US8790889B2, “Neuronal stimulation” (The University of Queensland, priority 2009, dated 2014).
At least one compound was matched to its structure with a doubt left.

System: hippocampal precursors
Assay: Slice-sphere assay (hippocampal organotypic slices, then neurosphere culture)
Assay type: cell-based, rat
Conditions: 10 μM and 1000 μM
Method: D-glucose (Sigma-Aldrich) was added to the medium to a final concentration of 5 mM. Four filters, each containing 6-7 hippocampal slices, were generated from a single animal. Plates were incubated at 37° C. in a humidified 5% CO2 incubator and the slices were cultured for 6 days. To assess the influence of specific compounds on hippocampal precursor proliferation in the slice culture, compounds were added to the complete medium at the doses described below. Two filters were treated with the compounds for each dose per experiment. On every alternate day half the medium was removed and replaced with fresh medium containing the compounds. Slices were treated with serotonin at 10 μM and 100 μM and norepinephrine at 1 μM, 10 μM and 100 μM. […] Propranolol (10 μM) was used to block β adrenergic receptors in the slices. On the 6th day of culture, the hippocampal slices from each treatment group were pooled and the tissue was minced using a scalpel blade. Minced tissue was then treated with 0.1% trypsin-EDTA (Invitrogen) for 5 minutes at 37° C. […] A single cell suspension was achieved by gentle trituration. The total number of viable cells in an aliquot was counted on a haemocytometer based on the exclusion of 0.08% trypan blue (Sigma-Aldrich). The cells were then cultured in complete neurosphere medium containing EGF and bFGF. […]

Structure (SMILES): CN(C)CCCC1(c2ccc(F)cc2)OCc2cc(C#N)ccc21 (stereo not shown) [citalopram]
- change in frequency of neurosphere generation: no significant change
